Values from PubChem BioAssay AID720505 (Drosophila RNAi Screening Center, 2013)

Purpose: 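Genes needed for store-operated calcium entry in fly cells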 (primary screen)
Cell system: Drosophila S2R+ cells
Knock-down reagent: long dsRNA against Drosophila genes
Treatment: thapsigargin (2 µM) in calcium-free buffer to empty internal stores, then 2 mM calcium added back
Measured: 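Fluo-4 signal in 384-well plates read on a FLIPR after thapsigargin (2 µM, calcium-free) store depletion and 2 mM calcium add-back; unnormalised mean endpoint per well; screen run twice, selected wells retested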
Direction: calcium signal and retest calcium signal: higher = more calcium entry after store depletion
Hit rule: 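Knock-downs counted as hits when calcium entry dropped relative to STIM1 positive and Rho1 negative controls present on each plate; roughly 1500 genes called, with reductions of differing size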
Calls: active = called as lowering calcium entry; inactive = not called
The deposit covers about 20,000 reagents; shown is an unselected part of those that have a named target and a result. Over the whole deposit, about 2,100 (10%) got an active call. 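Raw plate signals without normalisation; calls rest on control-based scores that were not deposited; replicate 2 separates called from uncalled poorly.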 A number with no mark means an inactive call. The numbers tell different reagents against one gene apart. A plus sign joins genes that one reagent is predicted to hit. Not given: the amount of reagent, the time to read-out.

gene | reagent no. | calcium signal, replicate 1 | calcium signal, replicate 2 | retest calcium signal, replicate 1 | retest calcium signal, replicate 2
Caf1-55 (Chromatin assembly factor 1, p55 subunit) | 1 | 80 | 137 | – | –
H (Hairless) | 1 | 212 | 194 | – | –
ppk30 (pickpocket 30) | 1 | 96.8 (active) | 118 | – | –
CG8564 | 1 | 129 | 90.6 | – | –
Cox10 (Cytochrome c oxidase assembly factor 10) | 1 | 85.7 | 84.2 | – | –
Irp-1A (Iron regulatory protein 1A) | 1 | 142 | 354 | 118 | 112
inaC (inactivation no afterpotential C) | 1 | 112 | 90 | – | –
MED18 (Mediator complex subunit 18) | 1 | 159 | 170 | – | –
T3dh + pgc | 1 | 125 | 135 | – | –
CG14655 | 1 | 109 | 171 | – | –
icln | 1 | 144 | 160 | – | –
Sik3 (Salt-inducible kinase 3) | 1 | 168 | 105 | – | –
Sik3 (Salt-inducible kinase 3) | 2 | 71.4 (active) | 161 | – | –
Nckx30C | 1 | 197 | 168 | – | –
Nckx30C | 2 | 168 | 171 | – | –
Nckx30C | 3 | 202 | 156 | – | –
Nckx30C | 4 | 143 | 109 | – | –
CG14545 | 1 | 260 | 192 | – | –
CG2991 | 1 | 93.1 | 189 | – | –
aurA (aurora A) | 1 | 150 | 79.8 | – | –
Sfxn2 (Sideroflexin 2) | 1 | 76 | 170 | – | –

Active calls, of those listed so far:
gene | reagent no. | calcium signal, replicate 1 | calcium signal, replicate 2 | retest calcium signal, replicate 1 | retest calcium signal, replicate 2
ppk30 (pickpocket 30) | 1 | 96.8 (active) | 118 | – | –
Sik3 (Salt-inducible kinase 3) | 2 | 71.4 (active) | 161 | – | –

The list goes on.
gene | reagent no. | calcium signal, replicate 1 | calcium signal, replicate 2 | retest calcium signal, replicate 1 | retest calcium signal, replicate 2
CG4676 | 1 | 110 | 173 | – | –
Ubc7 (Ubiquitin conjugating enzyme 7) | 1 | 60.8 (active) | 120 | – | –
mid (midline) | 1 | 94.5 | 108 | 83 | 95.2
mid (midline) | 2 | 131 | 95.6 | – | –
CG4115 | 1 | 137 | 119 | – | –
CtsB (Cathepsin B) | 1 | 79.5 | 68.7 | – | –
klu (klumpfuss) | 1 | 67.3 (active) | 35.8 | – | –
CG14630 | 1 | 96.1 | 142 | – | –
CG14630 | 2 | 74.5 | 136 | – | –
cocoon | 1 | 63.8 | 135 | – | –
Sry-beta (Serendipity beta) | 1 | 101 | 131 | – | –
Ccdc114 (Coiled-coil domain containing protein 114) | 1 | 114 | 196 | – | –
ZnT77C (Zinc transporter 77C) | 1 | 116 | 131 | – | –
ZnT77C (Zinc transporter 77C) | 2 | 113 | 204 | – | –
Nepl20 (Neprilysin-like 20) | 1 | 191 | 109 | – | –
CG4781 | 1 | 125 | 220 | – | –
unc-5 | 1 | 119 | 118 | 6409 | 94.9
unc-5 | 2 | 96.7 | 161 | – | –
unc-5 | 3 | 84.6 | 184 | – | –
fzr2 (fizzy-related 2) | 1 | 130 | 126 | – | –
CG12546 + CG14452 | 1 | 78 | 113 | – | –
CG34315 + Orc3 | 1 | 156 | 149 | – | –
TM9SF2 (Transmembrane 9 superfamily protein member 2) | 1 | 90.6 | 75.7 | – | –
CG7646 | 1 | 104 | 143 | – | –
CG9265 | 1 | 72.3 | 143 | – | –
CG9265 | 2 | 176 | 84.3 | – | –
wts (warts) | 1 | 115 (active) | 154 | – | –
wts (warts) | 2 | 74.9 | 71.5 | – | –
CG11396 | 1 | 87.8 | 137 | – | –
CG8814 | 1 | 91.5 | 220 | – | –
CG10140 | 1 | 90.4 | 116 | – | –
Hil (Hillarin) | 1 | 129 | 90.5 | – | –
Hil (Hillarin) | 2 | 66.4 | 108 | – | –
CG13073 | 1 | 93.4 | 180 | – | –
glob2 (globin 2) | 1 | 122 | 101 | – | –
